Data published in PubChem BioAssay AID328 (DTP/NCI, 2004).
The list shows only some results of the screen, not a fair sample: it is rich in T/C values a quarter to a half above the control, in often repeated tests (any T/C) and in doses without a T/C. Other doses and runs of a compound stand elsewhere. T/C: endpoint of the treated group in % of that of the vehicle group. Some entries give survivors of the animals treated and no T/C: the source files T/C as zero there, which appears to mark a toxic dose or a test without result, not a measured value. Some survivor counts are full or nearly so, which does not show that the dose was tolerated: survival well below the control is almost never listed, so the zero probably covers shortened survival too. Counts of survivors are from the toxicity check (mostly the fifth day) where no day follows; animals may have died later. Schedules are NCI's codes, taken here to give the interval after Q, in days (D) or hours (H), and the number of doses after X. Some entries hold several experiments; their values stand side by side, smallest first. For survival time, the PubChem record calls one and a half times the control and up active, and a quarter to a half above the control has no call in these data; cut-offs in other NCI protocols can differ. Some T/C values are followed by the survivors on the day toxicity was checked, most often the fifth; where none is given, no animal had died by that day.

Test system: BDF1 mice, P388 leukemia ip, median survival T/C
Experiment: NCI In Vivo Anticancer Drug Screen. Data for tumor model P388 Leukemia (intraperitoneal) in B6D2F1 (BDF1) mice
Conditions: T/C endpoint: median survival time, higher T/C = longer survival
In short: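 Steps: implant the tumour, treat one group with compound and another with vehicle, record survival, then divide treated by control.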

[1] = dose: 100.0 mg/kg/injection, schedule: Q01DX009 (ip), vehicle: saline with Tween-80
[2] = dose: 200.0 mg/kg/injection, schedule: Q01DX009 (ip), vehicle: saline with Tween-80

## C[n+]1cc2ccccc2c2ccccc21
dose: 25.0 mg/kg/injection, schedule: Q01DX009 (ip), vehicle: water
  T/C: 126 % of control
dose: 40.0 mg/kg/injection, schedule: Q01DX009 (ip), vehicle: water
  survivor count: 3 of 6
dose: 50.0 mg/kg/injection, schedule: Q01DX009 (ip), vehicle: water
  survivor count: 1 of 6 and 3 of 6
dose: 50.0 mg/kg/injection, schedule: Q04DX003 (ip), vehicle: water
  T/C: 128 % of control
dose: 100.0 mg/kg/injection, schedule: Q01DX009 (ip), vehicle: water
  survivor count: 0 of 6
dose: 100.0 mg/kg/injection, schedule: Q04DX003 (ip), vehicle: water
  survivor count: 0 of 6

## O=C1N(Cl)C(=O)C(c2ccc(Cl)cc2)(c2ccc(Cl)cc2)N1Cl
dose: 50.0 mg/kg/injection, schedule: Q04DX003 (ip), vehicle: saline with Tween-80
  T/C: 140 % of control
dose: 58.0 mg/kg/injection, schedule: Q04DX003 (ip), vehicle: saline with Tween-80
  T/C: 133 % of control
dose: 88.0 mg/kg/injection, schedule: Q01DX009 (ip), vehicle: Klucel (hydroxypropylcellulose) (HPC)
  T/C: 129 % of control
dose: 88.0 mg/kg/injection, schedule: Q02DX005 (ip), vehicle: Klucel (hydroxypropylcellulose) (HPC)
  T/C: 133 % of control
dose: 88.0 mg/kg/injection, schedule: Q04DX003 (ip), vehicle: saline with Tween-80
  T/C: 141 % of control
dose: 120.0 mg/kg/injection, schedule: Q04DX003 (ip), vehicle: Klucel (hydroxypropylcellulose) (HPC)
  T/C: 128 % of control
dose: 132.0 mg/kg/injection, schedule: Q01DX009 (ip), vehicle: Klucel (hydroxypropylcellulose) (HPC)
  T/C: 127 % of control
dose: 132.0 mg/kg/injection, schedule: Q04DX003 (ip), vehicle: saline with Tween-80
  T/C: 145 % of control
dose: 200.0 mg/kg/injection, schedule: Q04DX003 (ip), vehicle: saline with Tween-80
  T/C: 139, 145, 158 [5 of 6 alive], 168 % of control
dose: 240.0 mg/kg/injection, schedule: Q04DX003 (ip), vehicle: Klucel (hydroxypropylcellulose) (HPC)
  T/C: 142 % of control
dose: 400.0 mg/kg/injection, schedule: Q04DX003 (ip), vehicle: saline with Tween-80
  T/C: 127 % of control [4 of 6 alive]

## CCCCCCCCCCCCCC[N+](C)(C)CCCCCCCCCCCCCC
dose: 12.5 mg/kg/injection, schedule: Q01DX009 (ip), vehicle: saline
  T/C: 125 % of control
dose: 25.0 mg/kg/injection, schedule: Q01DX009 (ip), vehicle: saline
  T/C: 115, 123, 125, 129 % of control
dose: 37.5 mg/kg/injection, schedule: Q01DX009 (ip), vehicle: saline
  survivor count: 6 of 6
dose: 50.0 mg/kg/injection, schedule: Q01DX009 (ip), vehicle: saline
  survivor count: 4 of 6
dose: 100.0 mg/kg/injection, schedule: Q01DX009 (ip), vehicle: saline
  survivor count: 1 of 6
dose: 100.0 mg/kg/injection, schedule: Q04DX003 (ip), vehicle: saline
  survivor count: 4 of 6

## CN(C)c1ccc(C(=O)O)cn1
dose: 400.0 mg/kg/injection, schedule: Q01DX009 (ip), vehicle: saline
  T/C: 129 % of control

## O=C(Nc1ccccc1)Nc1nncs1
dose: 25.0 mg/kg/injection, schedule: Q01DX009 (ip), vehicle: other
  survivor count: 6 of 6
dose: 50.0 mg/kg/injection, schedule: Q01DX009 (ip), vehicle: other
  survivor count: 6 of 6
dose: 100.0 mg/kg/injection, schedule: Q01DX009 (ip), vehicle: other
  survivor count: 6 of 6
dose: 200.0 mg/kg/injection, schedule: Q01DX009 (ip), vehicle: other
  survivor count: 5 of 6
dose: 400.0 mg/kg/injection, schedule: Q01DX009 (ip), vehicle: other
  survivor count: 6 of 6

## CCCCCc1ccc2oc(=O)c3ccc(C)cc3c2c1O
dose: 12.5 mg/kg/injection, schedule: Q01DX009 (ip), vehicle: Klucel (hydroxypropylcellulose) (HPC)
  survivor count: 6 of 6
dose: 25.0 mg/kg/injection, schedule: Q01DX009 (ip), vehicle: Klucel (hydroxypropylcellulose) (HPC)
  survivor count: 6 of 6

## CC1=C(/C=C/C(C)=C/C=C/C(C)=C/C(=O)O)C(C)(C)CCC1
dose: 50.0 mg/kg/injection, schedule: Q01DX009 (ip), vehicle: saline with Tween-80
  survivor count: 6 of 6
[1]
  survivor count: 6 of 6
[2]
  survivor count: 6 of 6

## O=S1(=O)C=C(c2ccccc2)C1
[2]
  survivor count: 1 of 6

## CCc1ccc(C(C)(C)C)cc1
[2]
  T/C: 127 % of control
dose: 300.0 mg/kg/injection, schedule: Q01DX009 (ip), vehicle: saline with Tween-80
  survivor count: 1 of 6

## CN(C)c1ccc(C2NC(=S)NC3=C2CCCC3)cc1 (centres undefined)
[1]
  survivor count: 6 of 6
[2]
  survivor count: 6 of 6
